Data as given in US11065214B1, “Combination therapies with disulfiram” (Spring Discovery, Inc., priority 2020, dated 2021).
For at least one compound, name, drawing or mass did not settle the structure.

Tested on: T cells
Assay: T-cell age scores in multi-phenotype aging profiles (age, on-age, off-age)
Format: cell-based, human
Details: for T-cell age score: vs old untreated controls

## CCN(CC)C(=S)SSC(=S)N(CC)CC [disulfiram]
0.02-25.02 μM vs controls, 0.1 μM P=0.11
  "on-age" T-cell score: significantly shifted in the young direction
0.02-25.02 μM vs controls, significant from 0.33 μM
  "off-age" T-cell score: significant effect but only in the higher doses
First two doses, 0.02 μM and 0.1 μM
  T-cell age score: significant rejuvenating effect on the T-cell age scores
Higher doses, 0.33-25.02 μM (P<0.001)
  T-cell age score: significant, beneficial reductions in the T-cell age score
